Here are results for five molecules from article PMC3171648.

Protein sequences, listed by entry. Tags and fused reporters are not part of them.
UniProt P25655: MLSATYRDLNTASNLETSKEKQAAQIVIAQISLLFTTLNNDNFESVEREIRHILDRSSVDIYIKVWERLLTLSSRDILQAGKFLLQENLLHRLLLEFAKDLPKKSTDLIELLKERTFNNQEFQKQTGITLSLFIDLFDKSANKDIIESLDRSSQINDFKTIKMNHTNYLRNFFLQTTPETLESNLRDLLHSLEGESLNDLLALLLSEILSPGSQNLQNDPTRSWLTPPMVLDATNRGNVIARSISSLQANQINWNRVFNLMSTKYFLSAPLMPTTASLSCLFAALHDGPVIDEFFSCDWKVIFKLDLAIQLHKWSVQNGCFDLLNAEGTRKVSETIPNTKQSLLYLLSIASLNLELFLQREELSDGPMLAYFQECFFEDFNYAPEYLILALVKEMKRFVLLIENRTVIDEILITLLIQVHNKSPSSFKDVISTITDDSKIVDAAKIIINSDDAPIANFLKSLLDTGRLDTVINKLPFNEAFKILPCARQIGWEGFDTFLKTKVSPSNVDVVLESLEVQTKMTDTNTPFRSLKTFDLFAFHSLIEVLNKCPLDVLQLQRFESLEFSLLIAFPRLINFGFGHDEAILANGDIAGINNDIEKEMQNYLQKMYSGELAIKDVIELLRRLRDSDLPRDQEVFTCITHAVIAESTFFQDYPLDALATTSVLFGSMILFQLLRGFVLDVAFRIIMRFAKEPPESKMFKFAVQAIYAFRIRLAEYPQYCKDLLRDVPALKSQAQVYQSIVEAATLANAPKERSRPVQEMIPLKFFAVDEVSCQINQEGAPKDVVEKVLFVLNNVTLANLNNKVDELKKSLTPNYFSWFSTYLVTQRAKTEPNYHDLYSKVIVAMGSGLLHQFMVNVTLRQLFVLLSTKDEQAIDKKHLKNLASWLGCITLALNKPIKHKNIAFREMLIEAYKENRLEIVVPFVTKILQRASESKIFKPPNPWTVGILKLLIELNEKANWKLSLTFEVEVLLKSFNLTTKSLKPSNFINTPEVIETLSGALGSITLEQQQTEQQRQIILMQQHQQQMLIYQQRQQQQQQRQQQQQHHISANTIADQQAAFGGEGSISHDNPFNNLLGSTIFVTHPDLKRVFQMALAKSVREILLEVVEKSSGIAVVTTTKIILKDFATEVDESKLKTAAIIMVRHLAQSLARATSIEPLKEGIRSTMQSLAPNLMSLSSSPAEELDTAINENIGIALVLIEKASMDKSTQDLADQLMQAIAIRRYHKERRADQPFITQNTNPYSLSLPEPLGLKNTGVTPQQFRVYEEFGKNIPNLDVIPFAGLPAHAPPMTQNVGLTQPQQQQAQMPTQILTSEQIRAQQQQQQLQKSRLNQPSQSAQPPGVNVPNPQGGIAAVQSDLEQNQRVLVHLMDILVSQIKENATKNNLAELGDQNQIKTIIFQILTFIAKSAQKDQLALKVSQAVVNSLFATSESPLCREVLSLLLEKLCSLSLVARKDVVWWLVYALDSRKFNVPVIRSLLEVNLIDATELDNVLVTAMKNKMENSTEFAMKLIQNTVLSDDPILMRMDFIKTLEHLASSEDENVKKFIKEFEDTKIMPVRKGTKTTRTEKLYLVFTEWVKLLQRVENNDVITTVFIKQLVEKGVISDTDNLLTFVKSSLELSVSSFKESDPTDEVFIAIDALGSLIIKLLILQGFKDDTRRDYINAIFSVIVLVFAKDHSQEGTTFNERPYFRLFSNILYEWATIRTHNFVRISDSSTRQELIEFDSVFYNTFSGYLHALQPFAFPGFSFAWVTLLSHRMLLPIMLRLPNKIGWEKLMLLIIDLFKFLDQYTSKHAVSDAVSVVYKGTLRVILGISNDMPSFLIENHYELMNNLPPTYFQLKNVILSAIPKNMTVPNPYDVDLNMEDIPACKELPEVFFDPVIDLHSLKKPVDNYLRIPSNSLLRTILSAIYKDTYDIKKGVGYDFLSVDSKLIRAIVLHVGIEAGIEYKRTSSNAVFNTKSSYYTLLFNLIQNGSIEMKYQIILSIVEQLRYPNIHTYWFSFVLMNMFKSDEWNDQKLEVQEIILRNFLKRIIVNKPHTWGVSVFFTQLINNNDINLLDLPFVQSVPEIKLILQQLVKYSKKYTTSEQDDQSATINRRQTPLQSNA

These are yes or no findings as the source states them, for the method shown. Binding seen in cells or lysates may run through a third protein. These calls come from enrichment with a bait or labelling near it, and not all partners need be listed. For part of these data: A no says only that the protein was not detected with the bait. For part of these data: Where a sequence is shown, tags or fusion partners need not be part of it.

T1: CAF1 with a TAP-tag fused to the N-terminus (yeast) (UniProt P39008)
T1 sequence: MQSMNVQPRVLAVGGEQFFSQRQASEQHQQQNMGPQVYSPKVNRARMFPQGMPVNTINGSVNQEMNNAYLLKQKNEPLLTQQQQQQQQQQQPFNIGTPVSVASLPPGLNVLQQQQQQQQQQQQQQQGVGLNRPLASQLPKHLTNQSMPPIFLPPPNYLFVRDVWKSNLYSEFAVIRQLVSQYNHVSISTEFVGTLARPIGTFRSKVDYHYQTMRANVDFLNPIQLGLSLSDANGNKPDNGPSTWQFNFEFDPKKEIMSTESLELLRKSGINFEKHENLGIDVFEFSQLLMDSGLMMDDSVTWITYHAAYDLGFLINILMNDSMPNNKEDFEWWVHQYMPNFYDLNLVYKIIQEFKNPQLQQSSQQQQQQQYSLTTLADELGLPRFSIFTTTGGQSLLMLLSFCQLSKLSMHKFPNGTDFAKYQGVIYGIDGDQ

B1: NOT2 (protein, UniProt P06100 1-191)
chain: MEKFGLKALVPLLKLEDKELSSTYDHSMTLGADLSSMLYSLGIPRDSQDHRVLDTFQSPWAETSRSEVEPRFFTPESFTNIPGVLQSTVTPPCFNSIQNDQQRVALFQDETLFFLFYKHPGTVIQELTYLELRKRNWRYHKTLKAWLTKDPMMEPIVSADGLSERGSYVFFDPQRWEKCQRDFLLFYNAIM
B2: CAF130 (protein, UniProt P53280 1-1122)
chain: MTKKKAATNYAERQNLASEDSSGDSVHFKDFIPLQELLKDKNYVPSVENLEKILYNETMFNDQKICSNLLLEALIITLFTTISGKSALRLIQTSSLKERKSWAQSFENNSSSYASIVLSWKDNDILLLKFLRFLLANKTAPLQINRYNLPEYKLPLSFLIVSKITIPSILLNETYNLLKDYLYSITGRIESLISCSSTFDKPALVVRKILKDYNRMIECRNFYFWYSFNAENRVNLTFSDNISLLMENDEGNAGSGLDDSRFDHQKQPREAIMGRTINDQEQIYSFELNQDGTLEIPNVMEHSLLRHELLFKILNLTTVLTPLLELQFSTLCGLVDPLMQPTPNDKHIISIDFLFQLFLGLMSQSIKTSQEHNDHYDWKFYMCFNMQKIIDATMLRLNCFDFDILNSVNNTDNAVHWKTQLHRWLPHGLNTQDLELLYMIDILAVYTIYKLYEKIPIQLNPFLFSLISLWKNLSCVILLALEIDRIEEENGTYETPLMVRATIRGAAALRSVIATVLNGLVKNNDHDFKHESLNTFMSPYGRKLCHGALYADLRSHTASLLALGASIEDVTDLFADLQSGDRFDEDIRYMFDYECEDYDESFSESDHGGLDESVVNPTEKIASGSNNVFFRRRCNCIFNDDKLVAEDGANEAFGSTNSENVEGAMHNNRNAVHNATTATSDHVVTSPNPLSVRSRSTFEFDYSGEDWRDVPRDFNMYYSPSYSFIHEPKLDVIFSLTLRGATEKLNKEESILLVRSVASCVRNEQDQMILADLESNFSASINGDVEGEGNTKMSKIDNEDLRRTTPDDIYEIWSEESAFERMLNVNHDVAWRLMDEMLMCTGYRRILIWFLTHLELKHSLIYYVFELIMGLRGKPFSGEASDQDKKDDMIYEILKKKQKNEDASGLPFSRQGPIVLSDIETKMLLQEFFMNAAIFLSSKNNEEENEDGEKISLYSLGLVRLICYMVQTLIANDKFFFTKSECTFELQTLLMTWIGILPEAKDLFFKIKTRLAMEEEDSADTMQHEGRKNSDIEKKLNAKPASELNLKLLNLFPSKPANKDDSSPINTLRSFIADYSFDTQVNPPGRRVVFYDGKILPLPKADKPIPLHEYITLAELDVGDSE
B3: NOT5 (protein, UniProt Q12514 1-560)
chain: MSQRKLQQDIDKLLKKVKEGIEDFDDIYEKFQSTDPSNSSHREKLESDLKREIKKLQKHRDQIKTWLSKEDVKDKQSVLMTNRRLIENGMERFKSVEKLMKTKQFSKEALTNPDIIKDPKELKKRDQVLFIHDCLDELQKQLEQYEAQENEEQTERHEFHIANLENILKKLQNNEMDPEPVEEFQDDIKYYVENNDDPDFIEYDTIYEDMGCEIQPSSSNNEAPKEGNNQTSLSSIRSSKKQERSPKKKAPQRDVSISDRATTPIAPGVESASQSISSTPTPVSTDTPLHTVKDDSIKFDNSTLGTPTTHVSMKKKESENDSEQQLNFPPDRTDEIRKTIQHDVETNAAFQNPLFNDELKYWLDSKRYLMQPLQEMSPKMVSQLESSLLNCPDSLDADSPCLYTKPLSLPHPTSIFFPNEPIRFVYPYDVPLNLTNNENDTDNKFGKDSKAKSKKDDDIYSRTSLARIFMKFDLDTLFFIFYHYQGSYEQFLAARELFKNRNWLFNKVDRCWYYKEIEKLPPGMGKSEEESWRYFDYKKSWLARRCGNDFVYNEEDFEKL
B4: CAF1 (protein, UniProt P39008 1-433)
chain: T1 sequence
B5: CCR4 (protein, UniProt P31384 1-837)
chain: MNDPSLLGYPNVGPQQQQQQQQQQHAGLLGKGTPNALQQQLHMNQLTGIPPPGLMNNSDVHTSSNNNSRQLLDQLANGNANMLNMNMDNNNNNNNNNNNNNNNGGGSGVMMNASTAAVNSIGMVPTVGTPVNINVNASNPLLHPHLDDPSLLNNPIWKLQLHLAAVSAQSLGQPNIYARQNAMKKYLATQQAQQAQQQAQQQAQQQVPGPFGPGPQAAPPALQPTDFQQSHIAEASKSLVDCTKQALMEMADTLTDSKTAKKQQPTGDSTPSGTATNSAVSTPLTPKIELFANGKDEANQALLQHKKLSQYSIDEDDDIENRMVMPKDSKYDDQLWHALDLSNLQIFNISANIFKYDFLTRLYLNGNSLTELPAEIKNLSNLRVLDLSHNRLTSLPAELGSCFQLKYFYFFDNMVTTLPWEFGNLCNLQFLGVEGNPLEKQFLKILTEKSVTGLIFYLRDNRPEIPLPHERRFIEINTDGEPQREYDSLQQSTEHLATDLAKRTFTVLSYNTLCQHYATPKMYRYTPSWALSWDYRRNKLKEQILSYDSDLLCLQEVESKTFEEYWVPLLDKHGYTGIFHAKARAKTMHSKDSKKVDGCCIFFKRDQFKLITKDAMDFSGAWMKHKKFQRTEDYLNRAMNKDNVALFLKLQHIPSGDTIWAVTTHLHWDPKFNDVKTFQVGVLLDHLETLLKEETSHNFRQDIKKFPVLICGDFNSYINSAVYELINTGRVQIHQEGNGRDFGYMSEKNFSHNLALKSSYNCIGELPFTNFTPSFTDVIDYIWFSTHALRVRGLLGEVDPEYVSKFIGFPNDKFPSDHIPLLARFEFMKTNTGSKKV

The first test concerns the target T1, CAF1 with a TAP-tag fused to the N-terminus (yeast). Description: affinity purification with mass spectrometry; yeast lysate, N-terminally TAP-tagged CAF1 as bait: IgG sepharose and TEV cleavage only (before the calmodulin step); Coomassie SDS-gel.
Take B1: the binding entry was “binds”.
For the molecule B2, the binding entry was “binds”.
Regarding B3, the binding entry was “binds”.

The target in a further test is NOT1 with a TAP-tag fused to the N-terminus (yeast) (UniProt P25655). Description: affinity purification with mass spectrometry; yeast lysate, N-terminally TAP-tagged NOT1 as bait: IgG sepharose, TEV cleavage, then glycerol gradient instead of the calmodulin step; Coomassie SDS-gel, components identified by mass spectrometry.
With B1, the binding entry was “binds”.
Still for that read-out and setting: to B4 belongs “binds”.
Take B5: the binding entry was “binds”.
Same read-out and setting: to B2 belongs “binds”.
As to B3, the binding entry is recorded as “binds”.

For another test, the target named is T1, CAF1 with a TAP-tag fused to the N-terminus (yeast). Put plainly: affinity purification with mass spectrometry; tandem affinity purification from yeast lysate with N-terminally TAP-tagged CAF1 as bait: IgG sepharose, TEV cleavage, then calmodulin purification; Coomassie SDS-gel, components identified by mass spectrometry; 4 °C.
Consider B5, for which the binding entry is recorded as “binds”.

The target is the same in a further test. Put plainly: condition: only after the calmodulin purification step; affinity purification with mass spectrometry; tandem affinity purification from yeast lysate with N-terminally TAP-tagged CAF1 as bait: IgG sepharose, TEV cleavage, then calmodulin purification; Coomassie SDS-gel, components identified by mass spectrometry; 4 °C.
For B1, the binding entry was “no binding”.
Same read-out and setting: to B2 belongs “no binding”; to B3, “no binding”.
